Test results reported in patent publication US20170049855A1 (NEW YORK UNIVERSITY, published 2017).
No constants are given. Whether binding was seen depends on the method and setting. Binding seen in cells or lysates may run through a third protein. A result given as binding can be weak or reduced; the word gives no strength.

Legend:
[1] = target: T1, mouse GBA (endogenous, lung tissue) (mouse, UniProt P17439 20-515); assay: co-IP with anti-GBA antibody, probed with anti-PGRN antibody, mouse lung lysate
T1 construct: Endogenous protein precipitated or detected with anti-GBA antibody; also called glucocerebrosidase
T1 sequence (looked up): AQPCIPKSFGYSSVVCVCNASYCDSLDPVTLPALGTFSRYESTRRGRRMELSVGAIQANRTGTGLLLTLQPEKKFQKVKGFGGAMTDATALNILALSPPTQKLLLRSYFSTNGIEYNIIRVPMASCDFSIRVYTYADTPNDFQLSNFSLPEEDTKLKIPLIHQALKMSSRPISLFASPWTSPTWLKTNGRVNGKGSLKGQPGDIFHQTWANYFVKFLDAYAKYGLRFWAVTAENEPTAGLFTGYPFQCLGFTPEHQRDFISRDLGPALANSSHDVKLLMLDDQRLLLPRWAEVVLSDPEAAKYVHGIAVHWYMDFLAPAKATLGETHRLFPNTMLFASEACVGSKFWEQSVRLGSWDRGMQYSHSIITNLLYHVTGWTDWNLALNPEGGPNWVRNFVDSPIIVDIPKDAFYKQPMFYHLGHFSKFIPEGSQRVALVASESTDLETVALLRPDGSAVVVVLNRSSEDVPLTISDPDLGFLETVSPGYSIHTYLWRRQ

[2] = target: T1, mouse GBA (endogenous, lung tissue); assay: co-immunoprecipitation from WT mouse lung lysate, IP: GBA or mIgG, IB: PGRN and IB: GBA
[3] = target: T1, mouse GBA (endogenous, lung tissue); assay: co-IP with anti-GBA antibody, detected with anti-PGRN antibody, lung of WT mice

Measured: binding

mouse PGRN (endogenous, lung tissue of WT mice) (ligand)
binds: all assays above
